Structures can show the parent of a compound that is named as a salt. The list shows a part of the results. The data scatter; read single values as rough.
Each molecule was assayed on Salmonella enterica serovar Typhimurium ST313 D23580 (assay: normalized bacterial growth (OD600 20 h minus 0 h, interquartile-mean normalized) (fraction of plate interquartile mean); higher = more bacterial growth (less inhibition)). Conditions: LPM (pH 5.8, low phosphate, low Mg2+), concentration: 10 µM, temperature: 37 °C.

Structure (SMILES) | normalized bacterial growth
O=C(O)CCCc1ccc(N(CCCl)CCCl)cc1 [Chlorambucil] | 0.902
CC[C@@]1(O)C[C@H](O)c2c(cc3c(c2O)C(=O)c2c(O)ccc(O)c2C3=O)[C@H]1C(=O)OC | 0.916
CC(C)Oc1cccnc1N(C)C1CCN(Cc2ccc(I)cc2)CC1 [RBI 257 maleate salt] | 0.9
Nc1ccncc1 [4-Aminopyridine] | 1.38
COc1ccc(-n2nc(C(F)(F)F)cc2-c2ccc(Cl)cc2)cc1 | 0.773
O=C(O)CNCP(=O)(O)O | 0.928
C[N+]1(C)CCOC(O)(c2ccc(-c3ccc(C4(O)C[N+](C)(C)CCO4)cc3)cc2)C1 (stereo not drawn) [Hemicholinium-3] | 0.877
CN(C)Cc1c[nH]c2ccccc12 | 1.11
CO[C@H]1CC=C2CCN3CCC4=C(CC(=O)OC4)[C@]23C1 [Dihydro-beta-erythroidine hydrobromide] | 0.995
CC[C@H](C)[C@H]1O[C@]2(C=C[C@@H]1C)C[C@@H]1C[C@@H](C/C=C(\C)[C@@H](O[C@H]3C[C@H](OC)[C@@H](O[C@H]4C[C@H](OC)[C@@H](O)[C@H](C)O4)[C@H](C)O3)[C@@H](C)/C=C/C=C3\CO[C@@H]4[C@H](O)C(C)=C[C@@H](C(=O)O1)[C@]34O)O2.CO[C@H]1C[C@H](O[C@H]2[C@H](C)O[C@@H](O[C@@H]3/C(C)=C/C[C@@H]4C[C@@H](C[C@]5(C=C[C@H](C)[C@@H](C(C)C)O5)O4)OC(=O)[C@@H]4C=C(C)[C@@H](O)[C@H]5OC/C(=C\C=C\[C@@H]3C)[C@]54O)C[C@@H]2OC)O[C@@H](C)[C@@H]1O | 1.37
CC[C@H](C)[C@H]1O[C@]2(C=C[C@@H]1C)C[C@@H]1C[C@@H](C/C=C(\C)[C@@H](O[C@H]3C[C@H](OC)[C@@H](O[C@H]4C[C@H](OC)[C@@H](O)[C@H](C)O4)[C@H](C)O3)[C@@H](C)/C=C/C=C3\CO[C@@H]4[C@H](O)C(C)=C[C@@H](C(=O)O1)[C@]34O)O2.CO[C@H]1C[C@H](O[C@H]2[C@H](C)O[C@@H](O[C@@H]3/C(C)=C/C[C@@H]4C[C@@H](C[C@]5(C=C[C@H](C)[C@@H](C(C)C)O5)O4)OC(=O)[C@@H]4C=C(C)[C@@H](O)[C@H]5OC/C(=C\C=C\[C@@H]3C)[C@]54O)C[C@@H]2OC)O[C@@H](C)[C@@H]1O [Avermectin B1] | 1.25
COc1cc([C@@H]2c3cc4c(cc3[C@H](OC(C)=O)[C@H]3COC(=O)[C@H]23)OCO4)cc(OC)c1OC | 0.94
COc1cc(C=C(C#N)C#N)cc(O)c1O [Tyrphostin AG 34] | 0.886
